From PMC11302872
No constants are given. Whether binding was seen depends on the method and setting. Binding seen in cells or lysates may run through a third protein. Some entries that bind do so weakly or less than the wild type.

The chains behind the UniProt entries cited, without tags or fusion partners. Where a name states a change or a piece, a line headed by the entry shows the natural chain unless it says otherwise. A line that says so, or that is headed by a name, gives the form on record, which may keep a tag or linker. Residues count along the entry.
HSPA9 (human (endogenous in T24 and UM-UC-3)) (P38646, residues 47-679): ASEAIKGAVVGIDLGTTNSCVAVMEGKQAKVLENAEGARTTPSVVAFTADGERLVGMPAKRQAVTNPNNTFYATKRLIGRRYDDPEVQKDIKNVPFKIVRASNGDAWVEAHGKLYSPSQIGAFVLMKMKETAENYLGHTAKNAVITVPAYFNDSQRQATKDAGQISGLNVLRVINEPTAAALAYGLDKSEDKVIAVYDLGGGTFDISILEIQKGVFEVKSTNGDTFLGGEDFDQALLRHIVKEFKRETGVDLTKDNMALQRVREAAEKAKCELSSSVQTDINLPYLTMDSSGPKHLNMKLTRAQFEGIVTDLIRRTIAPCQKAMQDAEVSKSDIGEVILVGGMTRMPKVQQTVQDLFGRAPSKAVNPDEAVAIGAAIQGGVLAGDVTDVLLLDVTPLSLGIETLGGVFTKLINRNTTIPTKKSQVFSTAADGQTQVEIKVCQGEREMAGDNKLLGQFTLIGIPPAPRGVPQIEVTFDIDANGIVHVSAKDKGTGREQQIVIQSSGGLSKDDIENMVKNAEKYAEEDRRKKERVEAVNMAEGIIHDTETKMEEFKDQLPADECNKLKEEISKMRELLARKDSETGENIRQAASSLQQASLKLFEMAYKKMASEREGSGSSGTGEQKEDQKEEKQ
GFP-tagged HSPA9-K612R (OE-HSPA9-K612R) (P38646, form named): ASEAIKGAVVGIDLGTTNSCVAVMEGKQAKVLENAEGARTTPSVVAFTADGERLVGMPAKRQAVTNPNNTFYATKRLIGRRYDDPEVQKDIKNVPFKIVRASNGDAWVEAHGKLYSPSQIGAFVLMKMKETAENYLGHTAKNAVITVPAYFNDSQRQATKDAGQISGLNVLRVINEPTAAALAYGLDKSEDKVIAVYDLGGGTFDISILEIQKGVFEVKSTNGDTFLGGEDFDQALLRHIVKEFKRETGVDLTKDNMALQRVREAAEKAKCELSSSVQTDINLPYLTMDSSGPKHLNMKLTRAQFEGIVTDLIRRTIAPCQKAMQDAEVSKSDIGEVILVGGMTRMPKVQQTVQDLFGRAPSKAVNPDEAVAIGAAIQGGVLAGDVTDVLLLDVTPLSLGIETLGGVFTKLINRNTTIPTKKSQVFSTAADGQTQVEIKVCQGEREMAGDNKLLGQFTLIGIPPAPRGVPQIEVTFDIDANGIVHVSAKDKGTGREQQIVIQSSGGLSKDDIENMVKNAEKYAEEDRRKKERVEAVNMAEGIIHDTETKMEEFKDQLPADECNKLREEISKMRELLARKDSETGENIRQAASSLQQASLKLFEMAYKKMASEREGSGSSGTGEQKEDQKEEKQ
UniProt Q969V5: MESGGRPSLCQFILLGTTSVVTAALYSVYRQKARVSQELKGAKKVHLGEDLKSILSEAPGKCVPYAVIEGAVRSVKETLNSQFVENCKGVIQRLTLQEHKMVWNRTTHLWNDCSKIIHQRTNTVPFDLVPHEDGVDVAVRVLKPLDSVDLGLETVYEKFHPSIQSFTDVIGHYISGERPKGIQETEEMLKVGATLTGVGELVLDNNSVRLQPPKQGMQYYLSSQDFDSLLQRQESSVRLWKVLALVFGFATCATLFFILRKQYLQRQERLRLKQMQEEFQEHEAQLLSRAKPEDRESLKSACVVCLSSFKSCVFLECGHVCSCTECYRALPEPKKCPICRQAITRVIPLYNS
UniProt Q15022: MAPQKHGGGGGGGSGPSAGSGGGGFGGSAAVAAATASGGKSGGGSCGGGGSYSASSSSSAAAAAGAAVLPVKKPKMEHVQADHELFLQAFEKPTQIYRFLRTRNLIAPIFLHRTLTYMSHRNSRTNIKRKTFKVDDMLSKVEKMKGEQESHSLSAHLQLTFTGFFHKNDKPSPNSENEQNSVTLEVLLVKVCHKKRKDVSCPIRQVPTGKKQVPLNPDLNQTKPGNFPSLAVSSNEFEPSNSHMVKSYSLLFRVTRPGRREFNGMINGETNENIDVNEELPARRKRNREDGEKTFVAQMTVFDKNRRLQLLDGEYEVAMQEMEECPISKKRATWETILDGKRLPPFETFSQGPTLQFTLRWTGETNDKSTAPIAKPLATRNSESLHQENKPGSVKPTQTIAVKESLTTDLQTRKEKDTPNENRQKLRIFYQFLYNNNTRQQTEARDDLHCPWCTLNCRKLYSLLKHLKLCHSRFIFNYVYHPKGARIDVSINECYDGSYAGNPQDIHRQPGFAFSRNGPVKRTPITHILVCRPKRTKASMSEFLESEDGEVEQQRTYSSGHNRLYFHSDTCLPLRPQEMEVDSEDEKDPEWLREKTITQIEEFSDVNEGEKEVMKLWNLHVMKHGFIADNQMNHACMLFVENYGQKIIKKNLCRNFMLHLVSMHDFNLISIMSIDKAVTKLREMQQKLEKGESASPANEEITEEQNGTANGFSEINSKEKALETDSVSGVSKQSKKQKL
UniProt O75925: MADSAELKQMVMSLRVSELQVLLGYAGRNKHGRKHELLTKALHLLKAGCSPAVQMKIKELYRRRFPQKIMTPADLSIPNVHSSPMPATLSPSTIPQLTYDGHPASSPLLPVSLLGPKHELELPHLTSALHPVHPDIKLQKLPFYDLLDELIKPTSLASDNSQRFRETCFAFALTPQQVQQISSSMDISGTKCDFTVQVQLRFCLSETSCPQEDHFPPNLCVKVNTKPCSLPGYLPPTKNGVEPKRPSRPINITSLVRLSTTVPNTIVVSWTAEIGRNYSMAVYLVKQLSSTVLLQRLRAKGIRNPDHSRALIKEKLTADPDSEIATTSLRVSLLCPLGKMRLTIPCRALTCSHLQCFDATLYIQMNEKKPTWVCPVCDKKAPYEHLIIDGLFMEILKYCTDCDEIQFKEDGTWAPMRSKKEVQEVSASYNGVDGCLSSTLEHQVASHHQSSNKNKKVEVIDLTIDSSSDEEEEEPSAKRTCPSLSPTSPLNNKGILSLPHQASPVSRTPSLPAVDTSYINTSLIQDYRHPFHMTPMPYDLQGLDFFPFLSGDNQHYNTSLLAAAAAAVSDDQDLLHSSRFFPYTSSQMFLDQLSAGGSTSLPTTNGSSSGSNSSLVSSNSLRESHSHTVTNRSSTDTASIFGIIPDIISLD

Experiments:
[1] = biological target: GFP-tagged HSPA9-K612R (OE-HSPA9-K612R) (human) (UniProt P38646); assay: co-IP; anti-GFP IP from lysates of T24 and UM-UC-3 cells stably expressing GFP-tagged HSPA9 or HSPA9-K612R; immunoblot; also in MUL1-silenced cells (interactions largely weakened)
[2] = biological target: GFP-tagged wild-type HSPA9 (OE-HSPA9) (human) (UniProt P38646); assay: as above
[3] = biological target: HSPA9 (human (endogenous in T24 and UM-UC-3)) (UniProt P38646); assay: co-IP; anti-HSPA9 IP from separated nuclear and mitochondria-free cytoplasmic protein lysates of T24 and UM-UC-3 cells; immunoblot for HSPA9, SUZ12, EZH2; result told for the nuclear fraction
[4] = biological target: HSPA9 (human (endogenous in T24 and UM-UC-3)) (UniProt P38646); assay: co-IP; endogenous proteins, extracts of BCa cells (T24, UM-UC-3) in IP lysis buffer; 3.0 ug antibody (anti-MUL1, anti-HSPA9, anti-EZH2 or anti-SUZ12) overnight at 4 C, protein A/G magnetic beads 4 h, five rinses with NP40 lysis buffer; immunoblot
[5] = biological target: Mitochondrial E3 ubiquitin ligase 1 (MUL1) (human (endogenous in T24 and UM-UC-3)) (UniProt Q969V5); assay: as above

## SUZ12 (from UniProt Q15022 1-739)
[1]
  binding: no binding
[2]
  binding: binds
[3]
  binding: binds
[4]
  binding: binds
[5]
  binding: no binding

## HSPA9 (from UniProt P38646 47-679)
[5]
  binding: binds

## PIAS1 (from UniProt O75925 1-651) (enzyme)
[4]
  binding: no binding

## Mitochondrial E3 ubiquitin ligase 1 (MUL1) (from UniProt Q969V5 1-352) (enzyme)
[1]
  binding: binds
